This experiment has as its target T1, laforin WT (LexA fusion) (human) (UniProt O95278).
T1 sequence: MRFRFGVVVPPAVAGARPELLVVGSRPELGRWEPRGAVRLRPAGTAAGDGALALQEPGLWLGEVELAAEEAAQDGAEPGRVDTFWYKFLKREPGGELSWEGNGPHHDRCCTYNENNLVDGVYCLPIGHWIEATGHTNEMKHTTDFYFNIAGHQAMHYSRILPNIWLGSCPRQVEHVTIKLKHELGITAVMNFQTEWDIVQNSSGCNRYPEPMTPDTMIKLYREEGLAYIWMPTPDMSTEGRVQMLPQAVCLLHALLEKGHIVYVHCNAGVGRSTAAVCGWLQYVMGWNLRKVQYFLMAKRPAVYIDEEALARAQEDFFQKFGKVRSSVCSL
Put plainly: two-hybrid; LexA-laforin (pEG202) with Gal4 activation domain-malin or -PTG (pACT2) in S. cerevisiae; beta-galactosidase activity in yeast cell extract, in Miller Units.

No constants are given. Whether binding was seen depends on the method and setting. Some entries that bind do so weakly or less than the wild type. Tags and fused reporters may be left off the sequences shown.

B1: protein targeting to glycogen (Gal4 activation domain fusion) (natural protein, UniProt Q9UQK1 1-317, looked up)
chain: MSCTRMIQVLDPRPLTSSVMPVDVAMRLCLAHSPPVKSFLGPYDEFQRRHFVNKLKPLKSCLNIKHKAKSQNDWKCSHNQAKKRVVFADSKGLSLTAIHVFSDLPEEPAWDLQFDLLDLNDISSALKHHEEKNLILDFPQPSTDYLSFRSHFQKNFVCLENCSLQERTVTGTVKVKNVSFEKKVQIRITFDSWKNYTDVDCVYMKNVYGGTDSDTFSFAIDLPPVIPTEQKIEFCISYHANGQVFWDNNDGQNYRIVHVQWKPDGVQTQMAPQDCAFHQTSPKTELESTIFGSPRLASGLFPEWQSWGRMENLASYR
notes: protein targeting to glycogen (PTG); also called PTG; source: yeast two-hybrid fusion (S. cerevisiae, pACT2)
Regarding B1, the binding entry is “binds”.

Values taken from publication PMC12834914, “The biochemical dynamics of the glycogen phosphatase laforin directly impact brain metabolism” (The Journal of Biological Chemistry, 2025).
